Some of the results follow. These are further read-outs of the screen, such as a control signal, another cell line or another target. No call is given for them. The list favours compounds with an active or inconclusive main result. Potencies come from curve fits of mixed quality, noted in brackets.
Assay: qHTS Assay for Lipid Storage Modulators in Drosophila S3 Cells;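 on cell number change: cells counted by Cell Tracker Red CMTPX staining in the red channel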
Details: BODIPY lipid droplet fluorescence, 18-24 h; for cell number change: measured here: cell count max response, cells fed with added oleic acid
In short: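 Laser-scanning cytometry quantifies lipid droplet accumulation (500–530 nm total intensity; droplet/cell object ratio) in oleic acid-fed (400 uM added) Drosophila S3 cells treated with a concentration series. 20 uM Triacsin C defined 100% inhibition.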

[1] = measured here: lipid fluorescence (Fed channel) AC50, cells fed with added oleic acid
[2] = measured here: cell number channel AC50, cells fed with added oleic acid

| SMILES | cell number change | AC50 [1] | AC50 [2] |
| --- | --- | --- | --- |
| COc1ccc(NC(=O)c2cc(=O)[nH]c3ccccc23)cc1 | 19.4% | 7.31 µM [rising, partial curve, poor fit] |  |
| Cc1cccc(NC(=O)c2nc[nH]c2C(=O)N2CCC(C)CC2)c1 | -31.3% |  | 29.1 µM [falling, single point] |
| O=C(NC1CC1)C1=C[C@@H](c2ccc(Br)cc2)C[C@@H](OCc2ccc(CO)cc2)O1 | 16.6% | 7.31 µM [rising, partial curve, poor fit] |  |
| COc1ccc(C(=O)NNC(=O)c2ccc3ccccc3n2)cc1 | 17.4% |  | 0.00461 µM [rising, full curve, poor fit] |
| Cn1c(NCc2cccnc2)nc2c1c(=O)n(Cc1ccccc1F)c(=O)n2C |  | 0.92 µM [rising, full curve, poor fit] | 2.06 µM [rising, partial curve] |
| O=C(CNc1cc(S(=O)(=O)N2CCOCC2)ccc1NCC1CCCO1)Nc1ccccc1F (stereo unspecified) | 7.62% | 29.1 µM [rising, single point] |  |
| Cn1c(CCNC(=O)c2cccs2)n[nH]c1=S | -16.9% | 0.651 µM [falling, full curve, poor fit] | 0.651 µM [falling, full curve, poor fit] |
| CN1CCN(CCCNC(=O)c2ccc3c(=O)n(CCc4ccccc4)c(=O)[nH]c3c2)CC1 | -4.05% | 0.58 µM [rising, single point] |  |
| Cc1c(OCC(=O)NCc2ccncc2)ccc2c3c(c(=O)oc12)CCC3 | -2.36% | 6.51 µM [falling, single point] |  |
| COc1ccc(C(C)=O)cc1COc1cccc2c1OC(C)(C)C2 | 161% |  | 23.1 µM [rising, partial curve] |
| COc1ccc(OCc2cc(C(=O)N(C)C3CCOC3)no2)c(Cl)c1 (stereo unspecified) | -15.9% | 29.1 µM [falling, single point] |  |
| O=C(NNC1=Nc2ccccc2SC1)c1ccc(Cl)cc1 | -30.6% | 16.4 µM [falling, single point] |  |
| N#CCC(=O)N/N=C/c1cn(Cc2ccc(Cl)cc2Cl)c2ccccc12 | -24.1% | 7.31 µM [falling, partial curve] |  |
| O=C(CN1CCN(S(=O)(=O)N2CCOCC2)CC1)Nc1cc(Cl)ccc1Cl | 23.1% | 1.16 µM [falling, partial curve, poor fit] | 5.8 µM [rising, single point] |
| C=CCC(=O)N(CC)CC1CCCN(CCc2cccc(F)c2)C1 (stereo unspecified) | 15.7% | 6.51 µM [rising, single point] |  |
| CC(=O)OCCCCON1C(=O)c2ccccc2C1=O | -14.2% | 3.66 µM [falling, full curve, poor fit] |  |
| CC1(C)Oc2ccc3ccc(=O)oc3c2/C(=C/Nc2ccc(O)cc2)C1=O | -45.6% | 29.1 µM [falling, partial curve, poor fit] | 14.6 µM [falling, partial curve, poor fit] |
| CCOc1ncc(S(=O)(=O)N2CCN(CC)CC2)cc1C(=O)O | 1.75% |  |  |
| O=C(O)c1cc(Cl)c(Cl)cc1C(=O)N1CCOCC1 | -0.214% | 4.61 µM [falling, partial curve] |  |
| COc1ccccc1-c1nnc(SC/C(O)=C(\C#N)c2nc3ccccc3[nH]2)n1C1CCCCC1 | 5.33% | 4.11 µM [rising, single point] |  |

Looked up above:
CN1CCN(CCCNC(=O)c2ccc3c(=O)n(CCc4ccccc4)c(=O)[nH]c3c2)CC1 | AC50 [1]: 0.58 µM [rising, single point]
COc1ccc(C(C)=O)cc1COc1cccc2c1OC(C)(C)C2 | AC50 [2]: 23.1 µM [rising, partial curve]
CC(=O)OCCCCON1C(=O)c2ccccc2C1=O | cell number change: -14.2%

(list continues)

| SMILES | cell number change | AC50 [1] | AC50 [2] |
| --- | --- | --- | --- |
| COc1cc2c(cc1OC)-c1nnnn1C(C)(C)C2 |  |  | 0.411 µM [rising, partial curve, poor fit] |
| COc1ccc(-c2csc(C3=C(O)CN(C(C)C)C3=N)n2)cc1OC | -11.3% |  |  |
| C/C(=C\C(=S)Nc1ccccc1)Nc1cccc2ccccc12 | -8.45% | 29.1 µM [falling, single point] |  |
| CC(=O)c1cc2c(cc1NC(=O)c1ccccc1C)OCO2 | 46.3% | 14.6 µM [rising, partial curve, poor fit] | 13 µM [rising, partial curve] |
| COc1ccc(CC(=O)N/N=C/c2ccc(-c3ccc(F)cc3)o2)cc1OC | -69.5% | 1.46 µM [falling, partial curve] |  |
| Cc1cc(C)cc(N(CC(=O)Nc2ccc(C(F)(F)F)cc2)S(=O)(=O)c2c(C)[nH]c(=O)[nH]c2=O)c1 | -56.8% | 29.1 µM [rising, single point] | 29.1 µM [falling, single point] |
| Cc1cc(N2CCC(C)CC2)nc2cccc(O)c12 | 42% | 0.164 µM [falling, full curve, poor fit] | 29.1 µM [rising, single point] |
| COc1ccc(CCNc2nc(=O)[nH]nc2C)cc1OC | -0.13% |  |  |
| Cc1cc(C)cc(NC(=S)NCCCN2CCOCC2)c1 | 11.3% |  |  |
| Cc1ccccc1NS(=O)(=O)c1cc(C(=O)Nc2cccc([N+](=O)[O-])c2)ccc1C | 0.635% | 1.3 µM [rising, partial curve] |  |
| COC(=O)CN1C(=O)C(O)(CC(=O)c2ccc(Br)cc2)c2ccccc21 (stereo unspecified) | -52.4% | 2.91 µM [falling, full curve] | 0.58 µM [falling, full curve] |
| CCN(C(=O)CN1C(=O)S/C(=C\c2ccccc2OC)C1=O)C1CCS(=O)(=O)C1 (stereo unspecified) | -6.87% | 16.4 µM [rising, partial curve] |  |
| Cc1ccc2cc3c(NC(=O)C4CCCO4)nn(CC(C)C)c3nc2c1 (stereo unspecified) | 3.57% | 4.11 µM [rising, single point] |  |
| C=Cc1ccc2c(c1)N(C)C(=C)S2 | -99% |  |  |
| CNc1nc(OCC(F)(F)F)nc(N2CCOCC2)n1 | 5.98% |  |  |
| CCCCn1c(N)c(N(CCC(C)C)C(=O)COC(=O)c2ccc(CC)cc2)c(=O)[nH]c1=O |  | 29.1 µM [falling, single point] |  |
| CCN(CC)CCNc1ncnc2c1sc1nc(N3CCOCC3)c3c(c12)CCCC3 | -28.7% | 2.06 µM [falling, single point] |  |
| NC(=O)c1ccccc1OCc1nnc(-c2ccccc2Br)o1 | 7.92% | 0.058 µM [rising, full curve, poor fit] |  |
| C/C(=N\NC(=O)c1cc(-c2ccco2)nc2ccccc12)c1cccnc1 |  |  | 0.103 µM [rising, partial curve, poor fit] |
| Cc1ccc(NC(=O)Cc2n[nH]c(=S)n2C)cc1 | -1.18% |  |  |

| SMILES | cell number change | AC50 [1] | AC50 [2] |
| --- | --- | --- | --- |
| CCCCn1c(=O)[nH]c(=O)c2c1nc(-c1ccc(CC)c([N+](=O)[O-])c1)n2C | 69.4% |  | 25.9 µM [rising, single point] |
| Cc1cc(CNC(=O)C2CCC(=O)N(Cc3ccccc3F)C2)nn1C (stereo unspecified) | -6.23% | 6.51 µM [rising, single point] |  |
| N#Cc1ccc(C(=O)Nc2nc(-c3cccs3)c(C(=O)C(F)(F)F)s2)cc1 | -47% | 18.4 µM [falling, partial curve] | 16.4 µM [falling, partial curve] |
| Cc1ncc(CO)c(/C=N/NC(=S)Nc2ccc(F)cc2)c1O | -4.58% | 32.6 µM [falling, single point] |  |
| COc1ccc(Nc2ccc(N3C(=O)CCCC3=O)cc2[N+](=O)[O-])c(OC)c1 | 147% | 3.66 µM [rising, full curve] | 14.6 µM [rising, partial curve] |
| CCN(CC)c1ccc2c(c1)OC(N)=C(C#N)C2c1cccnc1 (stereo unspecified) | 38.9% |  | 29.1 µM [rising, partial curve, poor fit] |
| CC(C)NC(=O)COc1ccc(S(=O)(=O)N2CCOCC2)cc1 | -41.8% |  | 0.184 µM [falling, full curve] |
| CC(C)(C)c1ccc(C(=O)NC(=S)Nc2nc3c(s2)CCCC3)cc1 | 4.78% | 6.51 µM [falling, single point] |  |
| Cc1ccc(NC(=O)N2CCC(c3nc4c(nnn4Cc4c(F)cccc4Cl)c(=O)[nH]3)CC2)cc1 | 127% | 2.06 µM [rising, partial curve] | 10.3 µM [rising, partial curve] |
| COc1ccccc1N1CC(C(=O)OCC(=O)Nc2c(C)cccc2C)CC1=O (stereo unspecified) | 19.7% | 3.66 µM [rising, full curve] |  |
| O=C(Nc1ccc(Cn2cccn2)cc1)c1ccc(COc2cccc(Br)c2)cc1 | 51.8% | 2.59 µM [rising, partial curve] | 3.26 µM [rising, full curve, poor fit] |
| CCN1C(=O)c2cccc3c(NS(=O)(=O)c4ccc(NC(C)=O)cc4)ccc1c23 | -2.51% |  | 2.91 µM [rising, single point] |
| O=C(NCc1ccco1)C1Cc2ccccc2CN1C(=O)c1ccco1 (stereo unspecified) |  |  | 0.461 µM [falling, single point] |
| Cc1cc(C)cc(N(CC(=O)NCc2ccc3c(c2)OCO3)C(=O)CCC(=O)Nc2ccccn2)c1 | 28.3% | 5.8 µM [rising, partial curve] |  |
| CCOC(=O)CN1C(=O)S/C(=C/c2ccc3c(c2)n(C)c(=O)n3C)C1=O | -40.7% | 29.1 µM [falling, single point] |  |
| O=C(Nc1cccc(-c2csc(Nc3cccc(C(F)(F)F)c3)n2)c1)c1ccccc1 | -0.982% | 0.164 µM [rising, full curve] |  |
| CC(C)C(NC(=O)c1ccccc1)C(=O)NC1CCCc2ccccc21 (stereo unspecified) | -36.6% |  |  |
| Cc1ccc(C(O)CN2C3=NCCN3c3ccccc32)cc1 (stereo unspecified) | -10.9% | 0.116 µM [falling, full curve, poor fit] | 0.651 µM [falling, single point] |
